This is an account of results in PMC5663480, “Structural inhibition of dynamin-mediated membrane fission by endophilin” (eLife, 2017).

Amino acid sequences for entries named in this document (tags omitted).
UniProt O35179: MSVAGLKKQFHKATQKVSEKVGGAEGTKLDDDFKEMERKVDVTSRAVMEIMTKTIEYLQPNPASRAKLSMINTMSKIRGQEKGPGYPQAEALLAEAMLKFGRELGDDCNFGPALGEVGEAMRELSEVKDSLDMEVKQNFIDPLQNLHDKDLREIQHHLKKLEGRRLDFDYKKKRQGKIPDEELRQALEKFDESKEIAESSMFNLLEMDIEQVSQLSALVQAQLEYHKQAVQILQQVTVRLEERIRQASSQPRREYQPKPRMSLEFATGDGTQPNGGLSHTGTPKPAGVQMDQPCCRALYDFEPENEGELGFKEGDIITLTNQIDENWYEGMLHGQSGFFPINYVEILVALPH

Results are given in words; binding and its absence hold for the method and conditions named. Some entries that bind do so weakly or less than the wild type.

The target in test [1] is T1, Human dynamin1 (human) (UniProt Q05193).
T1 sequence: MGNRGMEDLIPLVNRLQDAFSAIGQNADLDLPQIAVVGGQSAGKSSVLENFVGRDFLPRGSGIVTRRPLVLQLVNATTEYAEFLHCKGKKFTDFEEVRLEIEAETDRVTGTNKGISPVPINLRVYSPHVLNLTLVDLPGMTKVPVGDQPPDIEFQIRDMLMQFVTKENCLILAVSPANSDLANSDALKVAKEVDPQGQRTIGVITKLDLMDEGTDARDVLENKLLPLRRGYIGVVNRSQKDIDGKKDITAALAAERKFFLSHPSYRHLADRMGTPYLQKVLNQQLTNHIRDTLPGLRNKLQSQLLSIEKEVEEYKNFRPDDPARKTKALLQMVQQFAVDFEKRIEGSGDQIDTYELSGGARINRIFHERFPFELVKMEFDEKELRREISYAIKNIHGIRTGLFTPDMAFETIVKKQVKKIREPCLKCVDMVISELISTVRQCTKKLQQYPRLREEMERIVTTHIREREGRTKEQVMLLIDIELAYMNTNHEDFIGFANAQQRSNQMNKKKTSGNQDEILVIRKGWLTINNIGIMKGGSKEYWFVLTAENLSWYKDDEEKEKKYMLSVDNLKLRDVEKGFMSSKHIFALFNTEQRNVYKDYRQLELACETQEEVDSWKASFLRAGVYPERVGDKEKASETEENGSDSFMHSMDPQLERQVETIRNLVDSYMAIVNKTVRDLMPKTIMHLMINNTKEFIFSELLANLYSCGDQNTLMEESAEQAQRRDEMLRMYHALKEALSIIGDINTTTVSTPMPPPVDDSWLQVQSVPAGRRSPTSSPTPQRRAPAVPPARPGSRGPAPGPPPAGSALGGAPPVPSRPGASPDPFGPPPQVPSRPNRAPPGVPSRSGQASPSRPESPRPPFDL
In words: cryo-EM structure; 2D class averages only (no 3D reconstruction) of membrane-bound co-complex: 6 µM dynamin and 6 µM endophilin with 2 mM GDP, 100% DOPS liposomes (0.63 g/l), GTPase buffer (20 mM HEPES, 100 mM NaCl, 1 mM MgCl2, pH 7.4), 30 min room temperature; tubules pelleted; 0.14% glutaraldehyde on the grid; negative stain in GDP and GMPPCP too; both purified.

Test [2] addresses T1, Human dynamin1 (human). In words: cryo-EM structure; 2D class averages of dynamin-only helices on lipid tubules: 8 µM protein with 2 mM GMPPCP, 100% DOPS liposomes (0.75 g/l), GTPase buffer, 30 min room temperature; both purified.

“Rat endophilinA1 (from UniProt O35179 1-352)”: the binding result with Human dynamin1 (human) [1] is “binds”.

B1: Human dynamin1 (enzyme, UniProt Q05193 1-864)
chain: MGNRGMEDLIPLVNRLQDAFSAIGQNADLDLPQIAVVGGQSAGKSSVLENFVGRDFLPRGSGIVTRRPLVLQLVNATTEYAEFLHCKGKKFTDFEEVRLEIEAETDRVTGTNKGISPVPINLRVYSPHVLNLTLVDLPGMTKVPVGDQPPDIEFQIRDMLMQFVTKENCLILAVSPANSDLANSDALKVAKEVDPQGQRTIGVITKLDLMDEGTDARDVLENKLLPLRRGYIGVVNRSQKDIDGKKDITAALAAERKFFLSHPSYRHLADRMGTPYLQKVLNQQLTNHIRDTLPGLRNKLQSQLLSIEKEVEEYKNFRPDDPARKTKALLQMVQQFAVDFEKRIEGSGDQIDTYELSGGARINRIFHERFPFELVKMEFDEKELRREISYAIKNIHGIRTGLFTPDMAFETIVKKQVKKIREPCLKCVDMVISELISTVRQCTKKLQQYPRLREEMERIVTTHIREREGRTKEQVMLLIDIELAYMNTNHEDFIGFANAQQRSNQMNKKKTSGNQDEILVIRKGWLTINNIGIMKGGSKEYWFVLTAENLSWYKDDEEKEKKYMLSVDNLKLRDVEKGFMSSKHIFALFNTEQRNVYKDYRQLELACETQEEVDSWKASFLRAGVYPERVGDKEKASETEENGSDSFMHSMDPQLERQVETIRNLVDSYMAIVNKTVRDLMPKTIMHLMINNTKEFIFSELLANLYSCGDQNTLMEESAEQAQRRDEMLRMYHALKEALSIIGDINTTTVSTPMPPPVDDSWLQVQSVPAGRRSPTSSPTPQRRAPAVPPARPGSRGPAPGPPPAGSALGGAPPVPSRPGASPDPFGPPPQVPSRPNRAPPGVPSRSGQASPSRPESPRPPFDL
B1: in the test with Human dynamin1 (human) [2], the binding result was “binds”.
